Record: PubChem BioAssay AID1259405 (NCATS, 2018)
Shown is a random part of about 50,000 reagents. About 4,000 of them (8%) were called active. 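Mouse siRNA library applied to hamster cells; one well for each siRNA.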

Assay: 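Silenced genes that increase secreted GFP made by CHO cells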 (primary screen)
System: Chinese hamster CHO-K1 ovary cells with stable secreted eGFP expression
Reagent: single siRNA against mouse genes, 0.8 pmol siRNA per well (2 µl of 400 nM stock)
Time to read-out: 3 days
Read-out: 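Per-well intracellular GFP measured by laser scanning cytometry, plus viability from ATP luminescence, each relative to plate median of non-targeting control wells, in %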
Scale: GFP, % of control: higher = more GFP per well, higher productivity; viability (ATP), % of control: higher = more viable cells (more ATP)
Rule for the call: 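a knock-down is called active if GFP reaches 120% or more of non-targeting control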

| gene symbol | PubChem SID | GFP, % of control | viability (ATP), % of control | outcome |
| --- | --- | --- | --- | --- |
| Or13p5 | SID363544438 | 107 | 55.8 | inactive |
| Or13p5 | SID363550766 | 96.4 | 46.5 | inactive |
| Or13p5 | SID363557315 | 57.5 | 58.3 | inactive |
| Vmn1r213 | SID363545034 | 68.8 | 67.5 | inactive |
| Vmn1r213 | SID363551362 | 83 | 101 | inactive |
| Vmn1r213 | SID363557911 | 42.3 | 46.4 | inactive |
| Prss50 | SID363574576 | 101 | 117 | inactive |
| Prss50 | SID363575632 | 55.2 | 56.2 | inactive |
| Prss50 | SID363580208 | 69.9 | 64.1 | inactive |
| Ms4a4d | SID363544178 | 96.6 | 68.9 | inactive |
| Ms4a4d | SID363550506 | 90.8 | 51.8 | inactive |
| Ms4a4d | SID363557055 | 71.1 | 53.8 | inactive |
| Or4b1 | SID363554273 | 112 | 64.2 | inactive |
| Or4b1 | SID363567720 | 86.2 | 60 | inactive |
| Or4b1 | SID363585077 | 66.9 | 83.4 | inactive |
| Rhox8 | SID363540420 | 57.6 | 64.2 | inactive |
| Rhox8 | SID363542172 | 93.1 | 46 | inactive |
| Rhox8 | SID363567088 | 119 | 85.3 | inactive |
| Arl5c | SID363541490 | 56.6 | 50.6 | inactive |
| Arl5c | SID363556117 | 176 | 60.8 | active |
| Arl5c | SID363566406 | 72.6 | 72.5 | inactive |

The list goes on, starting with the last 2 of the part before.
| gene symbol | PubChem SID | GFP, % of control | viability (ATP), % of control | outcome |
| --- | --- | --- | --- | --- |
| Arl5c | SID363556117 | 176 | 60.8 | active |
| Arl5c | SID363566406 | 72.6 | 72.5 | inactive |
| Msmo1 | SID363544827 | 62.9 | 57.4 | inactive |
| Msmo1 | SID363551155 | 66 | 78.3 | inactive |
| Msmo1 | SID363557704 | 17 | 12.3 | inactive |
| Ttc17 | SID363556359 | 41.9 | 50 | inactive |
| Ttc17 | SID363586809 | 106 | 123 | inactive |
| Ttc17 | SID363588917 | 106 | 97 | inactive |
| Adam15 | SID363547508 | 70.3 | 58.3 | inactive |
| Adam15 | SID363558277 | 36.8 | 32.1 | inactive |
| Adam15 | SID363560035 | 82.9 | 101 | inactive |
| Os9 | SID363542312 | 58.6 | 121 | inactive |
| Os9 | SID363551803 | 79.5 | 97.8 | inactive |
| Os9 | SID363559408 | 102 | 87.9 | inactive |
| Krt35 | SID363572136 | 95.9 | 74.8 | inactive |
| Krt35 | SID363573896 | 113 | 77.6 | inactive |
